Patent US8815831B2, “Treatment of Acinetobacter with alginate oligomers and antibiotics” (priority 2009, dated 2014)
At least one compound was matched to its structure with a doubt left. Some compounds share one wording; it may come from a single statement.

What was measured:
Acinetobacter strains = assay: MIC assays of Example 3, Tables 3 and 4 taken together; assay type: cell-based, Acinetobacter baumannii and Acinetobacter Iwoffii; settings: in one Acinetobacter strain or another
Procedure: MIC assays as described in Example 1 were conducted using the following Acinetobacter strains, antibiotics and concentrations of OligoCF-5/20 as described in Tables 3 and 4.
• V19* 7789 Acinetobacter baumannii • V20* 8065 Acinetobacter Iwoffii MDR Strains • V4* MDR ACB (Libya) Acinetobacter baumannii • V9* (Egypt) Acinetobacter baumannii • V10* (Egypt) Acinetobacter Iwoffii • V22* 6056 Acinetobacter Iwoffii
Further MIC assays were conducted with the various strains and antibiotics recited in Table 4 using the following protocol.

[1] = test system: Acinetobacter baumannii strains V4, V9, V19; assay: Further MIC assays, 384-well, Mueller-Hinton broth, Example 3 (Table 4); assay type: cell-based
[2] = test system: V10 (Egypt) Acinetobacter Iwoffii; assay: MIC assays as described in Example 1, Example 3 (Table 3); assay type: cell-based; settings: strain V10

| Structure (SMILES) | effect of increasing concentrations of OligoCF-5/20 (0-10%) on MIC values (Tables 3 and 4) (Acinetobacter strains) | effect of increasing concentrations of OligoCF-5/20 on MIC values (Table 4) ([1]; strain V19) | effect of OligoCF-5/20 on MIC values (Table 3) [2] | effect of OligoCF-5/20 on MIC values (Table 4) ([1]; strain V4) |
| --- | --- | --- | --- | --- |
| CC[C@H]1OC(=O)[C@H](C)[C@@H](O[C@H]2C[C@@](C)(OC)[C@@H](O)[C@H](C)O2)[C@H](C)[C@@H](O[C@@H]2O[C@H](C)C[C@H](N(C)C)[C@H]2O)[C@](C)(O)C[C@@H](C)[C@@H]2N[C@@H](COCCOC)O[C@H]([C@H]2C)[C@]1(C)O [dirithromycin] | decreases MIC values |  |  |  |
| C[C@@H](O)[C@H]1C(=O)N2C(C(=O)O)=C(SCCN=CN)C[C@H]12 [imipenem] | decreases MIC values | increased |  |  |
| CN(C)[C@@H]1C(O)=C(C(N)=O)C(=O)[C@@]2(O)C(O)=C3C(=O)c4c(O)cccc4[C@@](C)(O)[C@H]3[C@H](O)[C@@H]12 [oxytetracycline] | decreases MIC values |  | decreased MIC values | decreased MIC values |
